Reference: article PMC7229849
No constants are given. Whether binding was seen depends on the method and setting. In cells and extracts the contact can be indirect. Some entries that bind do so weakly or less than the wild type. Sequences can lack the tags named with a protein. Blank lines part the entries; values can stand above or below the molecule they belong to.

Sequences of proteins named here, by UniProt entry; tags and fusion partners are left off. A change or cut given only in a name is not applied to a line headed by its entry. A line that says so, or that is headed by a name, gives the form on record, which may keep a tag or linker.
Tcf4L (long isoform of Tcf4), myc-tagged (P15884-3, form named): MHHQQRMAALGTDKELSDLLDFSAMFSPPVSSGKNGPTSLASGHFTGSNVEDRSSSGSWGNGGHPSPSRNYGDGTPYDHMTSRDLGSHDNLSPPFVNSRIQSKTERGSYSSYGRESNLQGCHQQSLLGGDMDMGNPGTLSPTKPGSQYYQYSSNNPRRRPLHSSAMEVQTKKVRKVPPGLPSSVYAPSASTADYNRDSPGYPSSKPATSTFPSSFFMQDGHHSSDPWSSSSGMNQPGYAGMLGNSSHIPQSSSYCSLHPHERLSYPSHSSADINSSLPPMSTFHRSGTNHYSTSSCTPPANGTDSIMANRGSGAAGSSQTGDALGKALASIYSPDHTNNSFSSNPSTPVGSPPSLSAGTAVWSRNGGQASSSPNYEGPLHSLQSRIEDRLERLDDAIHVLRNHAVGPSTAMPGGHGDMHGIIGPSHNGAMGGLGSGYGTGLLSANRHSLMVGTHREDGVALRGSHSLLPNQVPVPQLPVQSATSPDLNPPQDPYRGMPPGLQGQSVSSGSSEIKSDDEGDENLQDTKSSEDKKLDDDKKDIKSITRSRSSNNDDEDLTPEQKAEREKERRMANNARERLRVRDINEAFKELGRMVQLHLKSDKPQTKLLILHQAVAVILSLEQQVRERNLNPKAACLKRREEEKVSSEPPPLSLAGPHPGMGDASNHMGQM

How the values were obtained:
Ascl1, T7-tagged = target: T1, Ascl1, T7-tagged (UniProt Q02067); assay: co-IP; extracts of transfected Hek293 cells with T7-tagged Olig1 or T7-tagged Ascl1 alone or with one myc-tagged class I bHLH protein; precipitation with mouse anti-T7 monoclonal and protein A sepharose; western blot with anti-myc monoclonal
T1 sequence: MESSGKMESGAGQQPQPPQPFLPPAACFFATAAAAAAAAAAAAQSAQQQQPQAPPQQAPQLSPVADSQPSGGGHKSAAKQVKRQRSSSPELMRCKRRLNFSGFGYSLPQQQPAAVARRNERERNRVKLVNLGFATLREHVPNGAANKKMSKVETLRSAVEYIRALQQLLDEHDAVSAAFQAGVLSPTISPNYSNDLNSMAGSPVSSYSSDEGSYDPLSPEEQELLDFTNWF

Olig1, T7-tagged = target: T2, Olig1, T7-tagged (UniProt Q9WUQ3); assay: as above
T2 sequence: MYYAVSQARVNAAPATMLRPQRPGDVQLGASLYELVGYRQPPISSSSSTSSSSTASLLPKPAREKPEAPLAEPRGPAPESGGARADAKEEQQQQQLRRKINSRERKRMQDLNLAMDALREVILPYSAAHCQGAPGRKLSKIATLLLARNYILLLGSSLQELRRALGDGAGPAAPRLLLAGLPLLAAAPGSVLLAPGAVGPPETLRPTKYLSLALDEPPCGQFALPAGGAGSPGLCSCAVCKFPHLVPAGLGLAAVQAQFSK

Olig2 = target: T3, Olig2 (UniProt Q9EQW6); assay: co-IP; the same extracts of transfected Hek293 cells; precipitation with rabbit anti-Olig2 antiserum and protein A sepharose; western blot with anti-myc monoclonal
T3 sequence: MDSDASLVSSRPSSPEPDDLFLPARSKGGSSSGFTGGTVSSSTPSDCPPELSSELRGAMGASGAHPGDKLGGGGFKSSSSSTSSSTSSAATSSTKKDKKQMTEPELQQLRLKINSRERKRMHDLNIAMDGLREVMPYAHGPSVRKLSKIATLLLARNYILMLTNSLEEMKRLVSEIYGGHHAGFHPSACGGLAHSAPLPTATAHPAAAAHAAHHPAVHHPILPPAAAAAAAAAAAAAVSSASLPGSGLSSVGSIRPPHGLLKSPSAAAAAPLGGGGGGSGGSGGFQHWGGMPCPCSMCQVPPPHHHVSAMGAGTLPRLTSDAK

binding (Ascl1, T7-tagged): binds
binding (Olig1, T7-tagged): binds
binding (Olig2): binds
Molecule: Tcf4L (long isoform of Tcf4), myc-tagged (from UniProt P15884-3 1-671)

binding (Ascl1, T7-tagged): binds
binding (Olig1, T7-tagged): binds
Molecule: Tcf12, myc-tagged (from UniProt P51514-1 1-707)

binding (Olig1, T7-tagged): binds
binding (Olig2): binds
B1: Tcf3, myc-tagged (protein, UniProt P15806-2 1-648)
chain: MMNQSQRMAPVGSDKELSDLLDFSMMFPLPVANGKSRPASLGGTQFAGSGLEDRPSSGSWGSSDQNSSSFDPSRTYSEGAHFSDSHSSLPPSTFLGAGLGGKGSERNAYATFGRDTSVGTLSQAGFLPGELSLSSPGPLSPSGIKSSSQYYPSFPSNPRRRAADGGLDTQPKKVRKVPPGLPSSVYPPSSGDSYSRDAAAYPSAKTPSSAYPSPFYVADGSLHPSAELWSTPSQVGFGPMLGDGSSPLPLAPGSSSVGSGTFGGLQQQDRMGYQLHGSEVNGSLPAVSSFSAAPGTYSGTSGHTPPVSGAAAESLLGTRGTTASSSGDALGKALASIYSPDHSSNNFSPSPSTPVGSPQGLPGTSQWPRAGAPSALSPNYDAGLHGLSKMEDRLDEAIHVLRSHAVGTASDLHGLLPGHGALTTSFTGPMSLGGRHAGLVGGSHPEEGLTSGASLLHNHASLPSQPSSLPDLSQRPPDSYSGLGRAGTTAGASEIKREEKEDEEIASVADAEEDKKDLKVPRTRTSSTDEVLSLEEKDLRDRERRMANNARERVRVRDINEAFRELGRMCQLHLKSDKAQTKLLILQQAVQVILGLEQQVRERNLNPKAACLKRREEEKVSGVVGDPQLALSAAHPGLGEAHNPAGHL
